Results: patent publication US20240262919A1 (SHANGHAITECH UNIVERSITY, published 2024)
These are yes or no findings as the source states them, for the method shown. Some binding calls cover weakened binding; strength is not graded here.

T1: antigen of the affinity maturation selections of antibody 3131 (IL-18Rβ, construct not named) (UniProt O95256)
T1 sequence (looked up): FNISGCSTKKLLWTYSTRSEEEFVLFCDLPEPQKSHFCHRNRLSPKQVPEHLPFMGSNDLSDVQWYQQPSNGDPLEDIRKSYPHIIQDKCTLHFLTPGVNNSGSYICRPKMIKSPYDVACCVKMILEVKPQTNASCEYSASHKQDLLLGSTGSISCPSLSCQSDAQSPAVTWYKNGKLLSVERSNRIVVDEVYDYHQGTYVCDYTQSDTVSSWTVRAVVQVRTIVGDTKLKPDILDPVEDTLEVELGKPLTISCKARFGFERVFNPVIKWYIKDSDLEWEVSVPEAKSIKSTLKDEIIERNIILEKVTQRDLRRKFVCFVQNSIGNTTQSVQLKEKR

B1: 3131 AM2-O-25 (Fab, V domains shown)
VH: EVQLVESGGGLVQPGGSLRLSCAASGFDLYYSSMHWVRQAPGKGLEWVASIYSSGGSTSYADSVKGRFTISADTSKNTAYLQMNSLRAEDTAVYYCARSSFSHGYGWYGLDYWGQGTLVTVSS
VL: DIQMTQSPSSLSASVGDRVTITCRASQSVSSAVAWYQQKPGKAPRLLIYGASSLYSGVPSRFSGSRSGTDFTLTISSLQPEDFATYYCQQYGYHDAGLITFGQGTKVEIK
B2: 3131 AM2-O-26 (Fab, V domains shown)
VH: EVQLVESGGGLVQPGGSLRLSCAASGFSLYYSSMHWVRQAPGKGLEWVASIYSSGGSTSYADSVKGRFTISADTSKNTAYLQMNSLRAEDTAVYYCARSSFSHGYGWYGLDYWGQGTLVTVSS
VL: DIQMTQSPSSLSASVGDRVTITCRASQSVSSAVAWYQQKPGKAPRLLIYGASSLYSGVPSRFSGSRSGTDFTLTISSLQPEDFATYYCQQYGYHDAGLITFGQGTKVEIK
B3: 3131 AM2-O-27 (Fab, V domains shown)
VH: EVQLVESGGGLVQPGGSLRLSCAASGFNLYYSSMHWVRQAPGKGLEWVASIYSSSGDTHYADSVKGRFTISADTSKNTAYLQMNSLRAEDTAVYYCARSSFSHGYGWYGLDYWGQGTLVTVSS
VL: DIQMTQSPSSLSASVGDRVTITCRASQSVSSAVAWYQQKPGKAPRLLIYGASSLYSGVPSRFSGSRSGTDFTLTISSLQPEDFATYYCQQYGYHDAGLITFGQGTKVEIK
B4: 3131 AM2-O-28 (Fab, V domains shown)
VH: EVQLVESGGGLVQPGGSLRLSCAASGFTLYYSSMHWVRQAPGKGLEWVASIYSSSGDTHYADSVKGRFTISADTSKNTAYLQMNSLRAEDTAVYYCARSSFSHGYGWYGLDYWGQGTLVTVSS
VL: DIQMTQSPSSLSASVGDRVTITCRASQSVSSAVAWYQQKPGKAPRLLIYGASSLYSGVPSRFSGSRSGTDFTLTISSLQPEDFATYYCQQYGYHDAGLITFGQGTKVEIK
B5: 3131 AM2-O-29 (Fab, V domains shown)
VH: EVQLVESGGGLVQPGGSLRLSCAASGFDLYYSSMHWVRQAPGKGLEWVASIYSSSGDTHYADSVKGRFTISADTSKNTAYLQMNSLRAEDTAVYYCARSSFSHGYGWYGLDYWGQGTLVTVSS
VL: DIQMTQSPSSLSASVGDRVTITCRASQSVSSAVAWYQQKPGKAPRLLIYGASSLYSGVPSRFSGSRSGTDFTLTISSLQPEDFATYYCQQYGYHDAGLITFGQGTKVEIK
B6: 3131 AM2-O-30 (Fab, V domains shown)
VH: EVQLVESGGGLVQPGGSLRLSCAASGFSLYYSSMHWVRQAPGKGLEWVASIYSSSGDTHYADSVKGRFTISADTSKNTAYLQMNSLRAEDTAVYYCARSSFSHGYGWYGLDYWGQGTLVTVSS
VL: DIQMTQSPSSLSASVGDRVTITCRASQSVSSAVAWYQQKPGKAPRLLIYGASSLYSGVPSRFSGSRSGTDFTLTISSLQPEDFATYYCQQYGYHDAGLITFGQGTKVEIK
B7: 3131 AM2-O-31 (Fab, V domains shown)
VH: EVQLVESGGGLVQPGGSLRLSCAASGFNLYYSSMHWVRQAPGKGLEWVASIYSSGGSTSYADSVKGRFTISADTSKNTAYLQMNSLRAEDTAVYYCARSSFSHGYGWYGLDYWGQGTLVTVSS
VL: DIQMTQSPSSLSASVGDRVTITCRASQSVSSAVAWYQQKPGKAPRLLIYSASSLYSGVPSRFSGSRSGTDFTLTISSLQPEDFATYYCQQYGYHGAGLITFGQGTKVEIK
B8: 3131 AM2-O-32 (Fab, V domains shown)
VH: EVQLVESGGGLVQPGGSLRLSCAASGFTLYYSSMHWVRQAPGKGLEWVASIYSSGGSTSYADSVKGRFTISADTSKNTAYLQMNSLRAEDTAVYYCARSSFSHGYGWYGLDYWGQGTLVTVSS
VL: DIQMTQSPSSLSASVGDRVTITCRASQSVSSAVAWYQQKPGKAPRLLIYSASSLYSGVPSRFSGSRSGTDFTLTISSLQPEDFATYYCQQYGYHGAGLITFGQGTKVEIK
B9: 3131 AM2-O-33 (Fab, V domains shown)
VH: EVQLVESGGGLVQPGGSLRLSCAASGFDLYYSSMHWVRQAPGKGLEWVASIYSSGGSTSYADSVKGRFTISADTSKNTAYLQMNSLRAEDTAVYYCARSSFSHGYGWYGLDYWGQGTLVTVSS
VL: DIQMTQSPSSLSASVGDRVTITCRASQSVSSAVAWYQQKPGKAPRLLIYSASSLYSGVPSRFSGSRSGTDFTLTISSLQPEDFATYYCQQYGYHGAGLITFGQGTKVEIK
B10: 3131 AM2-O-34 (Fab, V domains shown)
VH: EVQLVESGGGLVQPGGSLRLSCAASGFSLYYSSMHWVRQAPGKGLEWVASIYSSGGSTSYADSVKGRFTISADTSKNTAYLQMNSLRAEDTAVYYCARSSFSHGYGWYGLDYWGQGTLVTVSS
VL: DIQMTQSPSSLSASVGDRVTITCRASQSVSSAVAWYQQKPGKAPRLLIYSASSLYSGVPSRFSGSRSGTDFTLTISSLQPEDFATYYCQQYGYHGAGLITFGQGTKVEIK
B11: 3131 AM2-O-35 (Fab, V domains shown)
VH: EVQLVESGGGLVQPGGSLRLSCAASGFNLYYSSMHWVRQAPGKGLEWVASIYSSSGDTHYADSVKGRFTISADTSKNTAYLQMNSLRAEDTAVYYCARSSFSHGYGWYGLDYWGQGTLVTVSS
VL: DIQMTQSPSSLSASVGDRVTITCRASQSVSSAVAWYQQKPGKAPRLLIYSASSLYSGVPSRFSGSRSGTDFTLTISSLQPEDFATYYCQQYGYHGAGLITFGQGTKVEIK
B12: 3131 AM2-O-36 (Fab, V domains shown)
VH: EVQLVESGGGLVQPGGSLRLSCAASGFTLYYSSMHWVRQAPGKGLEWVASIYSSSGDTHYADSVKGRFTISADTSKNTAYLQMNSLRAEDTAVYYCARSSFSHGYGWYGLDYWGQGTLVTVSS
VL: DIQMTQSPSSLSASVGDRVTITCRASQSVSSAVAWYQQKPGKAPRLLIYSASSLYSGVPSRFSGSRSGTDFTLTISSLQPEDFATYYCQQYGYHGAGLITFGQGTKVEIK
B13: 3131 AM2-O-37 (Fab, V domains shown)
VH: EVQLVESGGGLVQPGGSLRLSCAASGFDLYYSSMHWVRQAPGKGLEWVASIYSSSGDTHYADSVKGRFTISADTSKNTAYLQMNSLRAEDTAVYYCARSSFSHGYGWYGLDYWGQGTLVTVSS
VL: DIQMTQSPSSLSASVGDRVTITCRASQSVSSAVAWYQQKPGKAPRLLIYSASSLYSGVPSRFSGSRSGTDFTLTISSLQPEDFATYYCQQYGYHGAGLITFGQGTKVEIK
B14: 3131 AM2-O-38 (Fab, V domains shown)
VH: EVQLVESGGGLVQPGGSLRLSCAASGFSLYYSSMHWVRQAPGKGLEWVASIYSSSGDTHYADSVKGRFTISADTSKNTAYLQMNSLRAEDTAVYYCARSSFSHGYGWYGLDYWGQGTLVTVSS
VL: DIQMTQSPSSLSASVGDRVTITCRASQSVSSAVAWYQQKPGKAPRLLIYSASSLYSGVPSRFSGSRSGTDFTLTISSLQPEDFATYYCQQYGYHGAGLITFGQGTKVEIK
B15: 3131 AM2-O-39 (Fab, V domains shown)
VH: EVQLVESGGGLVQPGGSLRLSCAASGFNLYYSSMHWVRQAPGKGLEWVASIYSSGGSTSYADSVKGRFTISADTSKNTAYLQMNSLRAEDTAVYYCARSSFSHGYGWYGLDYWGQGTLVTVSS
VL: DIQMTQSPSSLSASVGDRVTITCRASQSVSSAVAWYQQKPGKAPRLLIYGASSLYSGVPSRFSGSRSGTDFTLTISSLQPEDFATYYCQQYGYHGAGLITFGQGTKVEIK
B16: 3131 AM2-O-40 (Fab, V domains shown)
VH: EVQLVESGGGLVQPGGSLRLSCAASGFTLYYSSMHWVRQAPGKGLEWVASIYSSGGSTSYADSVKGRFTISADTSKNTAYLQMNSLRAEDTAVYYCARSSFSHGYGWYGLDYWGQGTLVTVSS
VL: DIQMTQSPSSLSASVGDRVTITCRASQSVSSAVAWYQQKPGKAPRLLIYGASSLYSGVPSRFSGSRSGTDFTLTISSLQPEDFATYYCQQYGYHGAGLITFGQGTKVEIK
B17: 3131 AM2-O-41 (Fab, V domains shown)
VH: EVQLVESGGGLVQPGGSLRLSCAASGFDLYYSSMHWVRQAPGKGLEWVASIYSSGGSTSYADSVKGRFTISADTSKNTAYLQMNSLRAEDTAVYYCARSSFSHGYGWYGLDYWGQGTLVTVSS
VL: DIQMTQSPSSLSASVGDRVTITCRASQSVSSAVAWYQQKPGKAPRLLIYGASSLYSGVPSRFSGSRSGTDFTLTISSLQPEDFATYYCQQYGYHGAGLITFGQGTKVEIK
B18: 3131 AM2-O-42 (Fab, V domains shown)
VH: EVQLVESGGGLVQPGGSLRLSCAASGFSLYYSSMHWVRQAPGKGLEWVASIYSSGGSTSYADSVKGRFTISADTSKNTAYLQMNSLRAEDTAVYYCARSSFSHGYGWYGLDYWGQGTLVTVSS
VL: DIQMTQSPSSLSASVGDRVTITCRASQSVSSAVAWYQQKPGKAPRLLIYGASSLYSGVPSRFSGSRSGTDFTLTISSLQPEDFATYYCQQYGYHGAGLITFGQGTKVEIK
B19: 3131 AM2-O-43 (Fab, V domains shown)
VH: EVQLVESGGGLVQPGGSLRLSCAASGFNLYYSSMHWVRQAPGKGLEWVASIYSSSGDTHYADSVKGRFTISADTSKNTAYLQMNSLRAEDTAVYYCARSSFSHGYGWYGLDYWGQGTLVTVSS
VL: DIQMTQSPSSLSASVGDRVTITCRASQSVSSAVAWYQQKPGKAPRLLIYGASSLYSGVPSRFSGSRSGTDFTLTISSLQPEDFATYYCQQYGYHGAGLITFGQGTKVEIK
B20: 3131 AM2-O-44 (Fab, V domains shown)
VH: EVQLVESGGGLVQPGGSLRLSCAASGFTLYYSSMHWVRQAPGKGLEWVASIYSSSGDTHYADSVKGRFTISADTSKNTAYLQMNSLRAEDTAVYYCARSSFSHGYGWYGLDYWGQGTLVTVSS
VL: DIQMTQSPSSLSASVGDRVTITCRASQSVSSAVAWYQQKPGKAPRLLIYGASSLYSGVPSRFSGSRSGTDFTLTISSLQPEDFATYYCQQYGYHGAGLITFGQGTKVEIK

Each binder was assayed against T1, antigen of the affinity maturation selections of antibody 3131 (IL-18Rβ, construct not named) (assay: affinity-based solution-phase phage display selection, decreasing antigen concentration).

binding, binds:
B1
B2
B3
B4
B5
B6
B7
B8
B9
B10
B11
B12
B13
B14
B15
B16
B17
B18
B19
B20
